# Assay: in vivo
# Details: female, SD, rat, iv, 5 mg/kg
smiles,measurement,setting,value
"CN1CC[C@]23c4c5ccc(O)c4O[C@H]2[C@@H](O)C=C[C@H]3[C@H]1C5 [Morphine, morphine]",concentration at 10 min,brain,2700 ng/g
same,concentration at 60 min,brain,223 ng/g
same,concentration at 180 min,brain,35 ng/g
same,concentration at 10 min,plasma,1100 ng/mL
same,concentration at 60 min,plasma,154 ng/mL
same,concentration at 180 min,plasma,10 ng/mL
